# Article PMC2984483
# The exact form of at least one protein or probe is not confirmed. Tags and fusion partners may be left off the protein sequences shown.
# How the values were obtained:
# [1] = target: T1, H-NS-His6 (Escherichia coli) (UniProt P0ACF8); assay: competitive EMSA; conditions: pBR322 TaqI/SspI fragments as competitor; EMSA: 0.1 ng 32P probe, 15 ul, 30 min at 25 C (stated for GadE/RcsBD56E), 6% native PAGE; recombinant protein; protein details: C-terminal His6; probe letters rebuilt from the primers and the genome
# T1 sequence (looked up, limits assumed): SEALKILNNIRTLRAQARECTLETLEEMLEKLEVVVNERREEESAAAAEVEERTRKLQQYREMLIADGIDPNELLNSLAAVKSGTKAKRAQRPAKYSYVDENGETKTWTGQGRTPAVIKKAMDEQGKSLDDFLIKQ
# [2] = target: T2, Strep-AdiY (Escherichia coli) (UniProt P33234); assay: EMSA; conditions: EMSA: 0.1 ng 32P probe, 15 ul, 30 min at 25 C (stated for GadE/RcsBD56E), 6% native PAGE; recombinant protein; protein details: N-terminal Strep; label: 32P; probe letters rebuilt from the primers and the genome
# T2 sequence (looked up, limits assumed): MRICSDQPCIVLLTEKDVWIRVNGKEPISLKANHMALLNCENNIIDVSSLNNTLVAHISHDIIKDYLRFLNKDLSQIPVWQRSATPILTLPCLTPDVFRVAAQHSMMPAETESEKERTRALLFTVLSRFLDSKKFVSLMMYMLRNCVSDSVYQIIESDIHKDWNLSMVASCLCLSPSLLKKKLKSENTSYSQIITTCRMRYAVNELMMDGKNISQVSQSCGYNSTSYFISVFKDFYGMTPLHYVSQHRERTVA
# [3] = target: T3, HdfR-His6 (Escherichia coli) (UniProt P0A8R9); assay: EMSA; conditions: EMSA: 0.1 ng 32P probe, 15 ul, 30 min at 25 C (stated for GadE/RcsBD56E), 6% native PAGE; recombinant protein; protein details: C-terminal His6; label: 32P; probe letters rebuilt from the primers and the genome
# T3 sequence (looked up, limits assumed): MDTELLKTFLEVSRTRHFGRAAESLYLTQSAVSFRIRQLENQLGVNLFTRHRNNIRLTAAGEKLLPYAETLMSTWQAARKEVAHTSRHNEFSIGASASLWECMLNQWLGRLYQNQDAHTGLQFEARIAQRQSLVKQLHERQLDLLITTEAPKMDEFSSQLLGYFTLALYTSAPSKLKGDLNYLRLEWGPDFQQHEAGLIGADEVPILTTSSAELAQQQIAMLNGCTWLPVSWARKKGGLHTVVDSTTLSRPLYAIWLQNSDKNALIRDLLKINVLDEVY
Sequence,binding result [1],binding result [2],binding result [3]
TTGCGTTCATAGATTATTCCCTTTGCAATGAAGCATCTCCCTTCTCCCTGTAGTAATACAGACATAAGGCGTCATCTCATTTTCTCAATAAAAATAAGAAAATCTGAGCTTCCTTTAAGATAATTCGACAAGTATACCATATAAATAGTCGGCATAAATGAAATGTCAACAATAAAATCAGGGATTGTACCGATGATTTATAGTTTCAAGTTGGCACTATAAGTCTTCTTACTAATCCTACAGGCGTAAGAATTGTATTGCAAAAGCCACGGTTTAGTCCTCTGTTGTTTTTTTTGCACCTCATTTAAAT (double strand) [evgA promoter],binds,,
TTCGCATCGGTTAATACGGTGAAGAGGGGATCTCAATTACTGCATAAATATGATGAGCAGGCTGCTCATCCAGAAAGCTTCCAGCGGATTTCCAACTTATCGGGAAAGCTGATACAGGTCAAATGGCAAGCTTATTGGTACAGAAATGTGCTTTAGCGCAAAATTCTTTATTAAATGACTGAAATTAAAATGGATTTTATCTTTAAGGCTAAAAGGGAAGTCGTTAGAGAAACAGTCAATTCCTGACTGTCATAAAGGTGTGTTAACCCTTATCCTGCCTTGAACTGACGACAAAACCAGCATTTTATACTGCCTTAATTGGTAATGACGTTTCATGCTACTGTTTTTGCCTAAAATCCATCAGGAGATAAAAAAATCTGACACAAGATAAGCAAAAGTGATTTATGTGATTATGCATGAAATTTCGGTAATTTTG (double strand) [gltBD promoter],,binds,binds
ACAGAACAAACGAGCGACATTTTATCTCCTTAAAACAATAAAGTTTTTATCGATACTTTTTTAACATTTCATATTTATAATTTGCTGTTTGTTTTCAGCCTTGCAAACTATTGATAATGAAATGTGTAAGATCTCTTGCAATGCGACCCATTTCTGAAATACTCAGCTGATCAATTGCCGAAAAAATGGCTATCAACGTAAGTGTCAGTAATAAGACAACCACAATTGCAGACATGATTTCTTTATAGTTGTCTCTTTGCGTGATTTTGTTTTTCACTGTGGTCGCATGCATTTCAAATATGTTTATTTAGCGGATAACGTTAAAAATCGTTAATCAGTA (double strand) [ydeO promoter],binds,,
